Record: PubChem BioAssay AID1159578 (Peter MacCallum Cancer Centre, 2015)
Test: 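Genome-wide hunt for genes controlling movement of lymphatic endothelial cells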 (primary screen). Cells: human lymphatic endothelial cells. Reagent: siRNA pool against human genes, 40 nM. Timing: 48 h after transfection. Measurement: 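High-content imaging of dye-stained cells in a scratch assay measures filled wound area and nuclei per well; duplicate means given as ratio to mock and robust z-score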. Reading the numbers: migration robust z-score: higher = faster migration into the scratch; nuclei per well: higher = more cells in the well. Active means: 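Pools averaging fewer than 3300 nuclei are never called; remaining pools count as changed when migration robust z lies outside -2 to 2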. Calls: active = migration changed; inactive = no migration change, or too few cells.
In all, the deposit lists about 18,000 reagents; below is a part drawn at random. About 1,030 of them (5.7%) count as active. 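Inactive calls also include pools with fewer than 3300 nuclei, whose migration was not assessed.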 Raw values vary from plate to plate and are shown uncorrected. Unmarked entries are inactive. Further read-outs or replicates are left out here.

Target gene | migration robust z-score | nuclei per well, duplicate mean
IGFBP4 (GeneID 3487) | -0.99 | 5837
NTMT1 (GeneID 28989) | -1.6 | 6088
ALOXE3 (GeneID 59344) | 0.44 | 5183
CRYBG2 (GeneID 55057) | -1.81 | 2968
CYTH4 (GeneID 27128) | 1.15 | 6083
ADRA1A (GeneID 148) | -0.52 | 6162
SERPINB9 (GeneID 5272) | -1.01 | 5288
LRCH4 (GeneID 4034) | 0.65 | 5972
SERINC5 (GeneID 256987) | 1.28 | 5414
PRKAB1 (GeneID 5564) | -2.1 (active) | 4408
CLUH (GeneID 23277) | 0.62 | 5781
KDSR (GeneID 2531) | 0.15 | 5831
B3GALT4 (GeneID 8705) | -0.52 | 5590
KCNJ6 (GeneID 3763) | -0.72 | 8352
OSTN (GeneID 344901) | -0.64 | 5890
C1orf216 (GeneID 127703) | -0.14 | 6640
SLC26A11 (GeneID 284129) | -2.34 (active) | 5688
ANGPTL6 (GeneID 83854) | -0.55 | 6474
ATP1A4 (GeneID 480) | -0.36 | 6846
WDR5B (GeneID 54554) | -0.46 | 5091

7 of these entries, reformatted.
| Target gene | migration robust z-score | nuclei per well, duplicate mean |
| --- | --- | --- |
| CRYBG2 (GeneID 55057) | -1.81 | 2968 |
| CYTH4 (GeneID 27128) | 1.15 | 6083 |
| ADRA1A (GeneID 148) | -0.52 | 6162 |
| SERPINB9 (GeneID 5272) | -1.01 | 5288 |
| LRCH4 (GeneID 4034) | 0.65 | 5972 |
| SERINC5 (GeneID 256987) | 1.28 | 5414 |
| PRKAB1 (GeneID 5564) | -2.1 (active) | 4408 |

The results go on:
Target gene | migration robust z-score | nuclei per well, duplicate mean
IQGAP1 (GeneID 8826) | -1.15 | 5112
SLU7 (GeneID 10569) | -0.03 | 5056
PTPN12 (GeneID 5782) | -1.35 | 4828
TASP1 (GeneID 55617) | -0.86 | 4987
HS3ST3B1 (GeneID 9953) | 0.36 | 4890
HARS2 (GeneID 23438) | 0.44 | 5470
PSPH (GeneID 5723) | 0.75 | 6997
WDR44 (GeneID 54521) | -0.22 | 4752
FPR2 (GeneID 2358) | 0.88 | 4730
SYVN1 (GeneID 84447) | -1.9 | 4162
CENPN (GeneID 55839) | -1.01 | 5717
IRAK2 (GeneID 3656) | -0.44 | 4912
MRPL14 (GeneID 64928) | 0.02 | 6444
RAB21 (GeneID 23011) | 0.21 | 5659
PSME3 (GeneID 10197) | 0.27 | 5941
WT1 (GeneID 7490) | 0.42 | 5108
TMEM230 (GeneID 29058) | 0.14 | 3762
SRI (GeneID 6717) | -0.41 | 5624
AMIGO2 (GeneID 347902) | -0.04 | 5692
ROS1 (GeneID 6098) | -0.05 | 6442
CNRIP1 (GeneID 25927) | -0.41 | 5679
CACNA1I (GeneID 8911) | -0.1 | 6180
SSH1 (GeneID 54434) | -0.16 | 5406
MYO9B (GeneID 4650) | -0.13 | 4290
CC2D1A (GeneID 54862) | -0.34 | 6446
CCNDBP1 (GeneID 23582) | -0.52 | 6094
TSC1 (GeneID 7248) | 0.27 | 6952
TAMM41 (GeneID 132001) | 1.44 | 6454
SEC24B (GeneID 10427) | 0.68 | 5772
SLC35F3 (GeneID 148641) | -0.12 | 5222
MOAP1 (GeneID 64112) | 1.31 | 5027
CHST4 (GeneID 10164) | -1.85 | 3714
SAE1 (GeneID 10055) | 0.39 | 5365
PTGFRN (GeneID 5738) | 0.36 | 5795
TINAGL1 (GeneID 64129) | 0.99 | 7880
RASGRP1 (GeneID 10125) | -0.04 | 6370
NOMO3 (GeneID 408050) | 0.65 | 6479
